Experimental findings from publication PMC6461442 are described below.

The target in the test is GST-Chm7 (S. cerevisiae). The test is described as follows: pull-down; Heh1 WH incubated in solution with GST-Chm7, dialysed overnight into binding buffer (50 mM Tris pH 7.4, 150 mM NaCl, 2 mM MgCl2, 2 mM CaCl2, 10% glycerol, 0.5% NP-40, 1 mM DTT), then captured on glutathione beads 1 hr at 4°C, washed thrice; stained SDS-PAGE gel; both purified.

These are yes or no findings as the source states them, for the method shown.

B1: Heh1 WH domain, heh1(735-834) (domain or fragment, UniProt Q03707 735-834)
chain: IEELVTQTMEKLKFQKIKSMSDPKENAYLSIVQLRDIFLSDIVDLKYKNQLWSEVVKYLEHNNSNIKSNLTEIRGEIMKCWEWIGPMELNEPKDSAENKI
With B1, the binding result is listed as “no binding”.
